# Experimental data published in the supplement of paper PMC6411743.
# The chains behind the UniProt entries cited, without tags or fusion partners. Where a name states a change or a piece, a line headed by the entry shows the natural chain unless it says otherwise.
# UniProt Q9H061: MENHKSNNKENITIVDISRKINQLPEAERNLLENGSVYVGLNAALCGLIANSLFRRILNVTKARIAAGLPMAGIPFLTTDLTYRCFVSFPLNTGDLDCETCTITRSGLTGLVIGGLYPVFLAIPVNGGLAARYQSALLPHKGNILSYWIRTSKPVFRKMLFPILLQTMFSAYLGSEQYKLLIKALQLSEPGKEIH
# UniProt Q8N4H5: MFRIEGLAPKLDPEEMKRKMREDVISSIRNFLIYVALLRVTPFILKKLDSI
# UniProt Q08623: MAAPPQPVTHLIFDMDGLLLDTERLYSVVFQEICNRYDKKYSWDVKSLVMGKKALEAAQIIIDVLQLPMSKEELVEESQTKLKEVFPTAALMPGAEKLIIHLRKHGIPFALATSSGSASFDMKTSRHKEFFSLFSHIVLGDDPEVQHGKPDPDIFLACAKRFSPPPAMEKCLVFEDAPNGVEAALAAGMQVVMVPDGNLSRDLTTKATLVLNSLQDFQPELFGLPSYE
# UniProt Q15366, whole entry: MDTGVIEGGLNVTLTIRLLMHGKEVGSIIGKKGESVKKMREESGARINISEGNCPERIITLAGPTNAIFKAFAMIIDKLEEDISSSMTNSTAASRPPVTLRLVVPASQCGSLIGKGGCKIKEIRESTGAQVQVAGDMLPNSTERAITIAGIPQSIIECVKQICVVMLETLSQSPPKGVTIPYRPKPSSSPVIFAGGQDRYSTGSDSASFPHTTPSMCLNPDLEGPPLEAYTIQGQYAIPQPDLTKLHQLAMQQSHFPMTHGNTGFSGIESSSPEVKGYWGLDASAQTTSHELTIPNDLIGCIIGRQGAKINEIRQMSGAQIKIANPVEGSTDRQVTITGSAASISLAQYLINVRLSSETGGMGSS
# UniProt P10242: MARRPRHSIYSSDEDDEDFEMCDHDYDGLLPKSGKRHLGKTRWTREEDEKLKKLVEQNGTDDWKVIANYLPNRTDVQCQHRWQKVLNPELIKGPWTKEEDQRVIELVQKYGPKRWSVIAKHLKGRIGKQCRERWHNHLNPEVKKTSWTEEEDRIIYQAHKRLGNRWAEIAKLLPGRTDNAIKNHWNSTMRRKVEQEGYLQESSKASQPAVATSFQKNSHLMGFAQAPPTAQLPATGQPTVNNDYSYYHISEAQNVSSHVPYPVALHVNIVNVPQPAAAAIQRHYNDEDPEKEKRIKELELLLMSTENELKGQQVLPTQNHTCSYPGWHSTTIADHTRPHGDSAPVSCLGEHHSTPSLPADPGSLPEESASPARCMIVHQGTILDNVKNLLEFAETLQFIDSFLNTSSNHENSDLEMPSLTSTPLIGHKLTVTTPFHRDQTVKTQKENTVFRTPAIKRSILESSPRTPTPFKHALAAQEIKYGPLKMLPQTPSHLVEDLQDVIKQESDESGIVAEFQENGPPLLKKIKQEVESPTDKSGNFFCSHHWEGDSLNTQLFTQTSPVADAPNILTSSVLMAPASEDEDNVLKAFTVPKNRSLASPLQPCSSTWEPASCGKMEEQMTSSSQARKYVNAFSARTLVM
# UniProt P25786: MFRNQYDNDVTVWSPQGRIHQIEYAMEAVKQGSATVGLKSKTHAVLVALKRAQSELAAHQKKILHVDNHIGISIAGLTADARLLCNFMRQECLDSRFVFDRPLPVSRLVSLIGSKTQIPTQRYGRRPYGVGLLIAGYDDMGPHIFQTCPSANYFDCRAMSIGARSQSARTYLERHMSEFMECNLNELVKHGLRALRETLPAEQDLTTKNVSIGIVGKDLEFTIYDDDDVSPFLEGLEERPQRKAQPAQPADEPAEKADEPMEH
# UniProt Q9UJ41, whole entry: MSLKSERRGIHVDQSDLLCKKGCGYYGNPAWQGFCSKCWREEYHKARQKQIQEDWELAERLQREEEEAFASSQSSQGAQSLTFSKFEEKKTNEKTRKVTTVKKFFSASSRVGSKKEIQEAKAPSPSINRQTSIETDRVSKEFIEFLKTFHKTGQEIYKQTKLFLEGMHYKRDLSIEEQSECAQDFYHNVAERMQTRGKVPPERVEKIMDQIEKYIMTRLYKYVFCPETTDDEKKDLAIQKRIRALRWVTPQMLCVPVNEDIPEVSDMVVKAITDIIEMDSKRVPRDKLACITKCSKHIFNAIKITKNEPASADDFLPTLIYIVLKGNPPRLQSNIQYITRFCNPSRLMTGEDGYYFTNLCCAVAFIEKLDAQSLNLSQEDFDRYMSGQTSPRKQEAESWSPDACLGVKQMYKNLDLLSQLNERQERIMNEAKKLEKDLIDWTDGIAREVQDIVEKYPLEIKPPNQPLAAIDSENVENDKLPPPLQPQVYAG
# UniProt Q13155: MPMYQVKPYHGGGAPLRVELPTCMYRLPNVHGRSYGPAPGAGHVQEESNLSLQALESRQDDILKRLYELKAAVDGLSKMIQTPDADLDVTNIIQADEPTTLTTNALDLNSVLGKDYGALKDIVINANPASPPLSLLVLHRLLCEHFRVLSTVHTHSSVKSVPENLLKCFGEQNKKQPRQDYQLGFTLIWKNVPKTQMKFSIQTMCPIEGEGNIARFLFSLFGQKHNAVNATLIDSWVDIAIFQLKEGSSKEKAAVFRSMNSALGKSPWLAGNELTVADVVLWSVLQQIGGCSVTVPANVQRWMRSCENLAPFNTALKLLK
# UniProt O14683: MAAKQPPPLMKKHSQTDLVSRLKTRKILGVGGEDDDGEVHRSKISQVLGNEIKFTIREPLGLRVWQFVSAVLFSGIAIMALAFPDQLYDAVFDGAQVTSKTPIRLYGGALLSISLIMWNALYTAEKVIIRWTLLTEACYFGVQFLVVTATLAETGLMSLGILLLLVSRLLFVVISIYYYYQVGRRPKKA
# UniProt Q8NEM7: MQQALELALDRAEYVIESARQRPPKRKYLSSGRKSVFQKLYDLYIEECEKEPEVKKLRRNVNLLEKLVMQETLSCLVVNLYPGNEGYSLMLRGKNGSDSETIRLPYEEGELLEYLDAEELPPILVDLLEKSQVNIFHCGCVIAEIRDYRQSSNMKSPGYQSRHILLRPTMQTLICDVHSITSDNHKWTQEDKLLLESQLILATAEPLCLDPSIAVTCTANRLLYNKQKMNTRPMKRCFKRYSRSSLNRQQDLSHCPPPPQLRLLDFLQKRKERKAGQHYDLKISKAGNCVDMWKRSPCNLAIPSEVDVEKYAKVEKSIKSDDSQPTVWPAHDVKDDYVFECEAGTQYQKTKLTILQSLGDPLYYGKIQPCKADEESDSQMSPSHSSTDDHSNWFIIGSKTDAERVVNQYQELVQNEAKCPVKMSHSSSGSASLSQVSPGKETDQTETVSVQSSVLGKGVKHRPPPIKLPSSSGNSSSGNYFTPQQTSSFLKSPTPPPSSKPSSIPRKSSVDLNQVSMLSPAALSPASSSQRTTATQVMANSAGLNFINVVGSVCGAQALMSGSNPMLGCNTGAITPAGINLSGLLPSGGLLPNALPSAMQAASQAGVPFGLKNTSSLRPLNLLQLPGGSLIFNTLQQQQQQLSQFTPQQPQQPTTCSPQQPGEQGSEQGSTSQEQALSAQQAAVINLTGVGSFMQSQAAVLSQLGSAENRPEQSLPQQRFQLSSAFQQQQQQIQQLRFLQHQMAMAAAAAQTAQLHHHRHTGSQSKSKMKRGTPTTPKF
# UniProt Q9NZJ0: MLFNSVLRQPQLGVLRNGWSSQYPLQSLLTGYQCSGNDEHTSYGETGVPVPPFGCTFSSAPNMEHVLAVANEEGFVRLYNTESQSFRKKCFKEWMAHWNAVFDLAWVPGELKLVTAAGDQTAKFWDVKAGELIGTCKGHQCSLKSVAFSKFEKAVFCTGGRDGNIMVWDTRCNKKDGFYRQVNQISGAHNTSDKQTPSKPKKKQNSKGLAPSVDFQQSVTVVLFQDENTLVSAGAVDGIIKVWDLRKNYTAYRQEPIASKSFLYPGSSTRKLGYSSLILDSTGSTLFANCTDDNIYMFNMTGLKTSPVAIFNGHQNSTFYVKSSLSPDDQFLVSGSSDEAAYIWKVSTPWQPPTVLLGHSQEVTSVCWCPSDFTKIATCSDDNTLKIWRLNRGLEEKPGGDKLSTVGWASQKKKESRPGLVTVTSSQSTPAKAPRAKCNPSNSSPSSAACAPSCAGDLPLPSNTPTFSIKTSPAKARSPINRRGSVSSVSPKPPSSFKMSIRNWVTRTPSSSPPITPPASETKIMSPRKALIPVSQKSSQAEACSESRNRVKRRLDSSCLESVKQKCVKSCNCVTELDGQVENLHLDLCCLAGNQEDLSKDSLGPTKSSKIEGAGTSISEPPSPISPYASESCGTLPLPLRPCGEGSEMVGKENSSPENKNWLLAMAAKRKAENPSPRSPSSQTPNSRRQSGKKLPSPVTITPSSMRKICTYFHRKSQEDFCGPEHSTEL
# UniProt P20936: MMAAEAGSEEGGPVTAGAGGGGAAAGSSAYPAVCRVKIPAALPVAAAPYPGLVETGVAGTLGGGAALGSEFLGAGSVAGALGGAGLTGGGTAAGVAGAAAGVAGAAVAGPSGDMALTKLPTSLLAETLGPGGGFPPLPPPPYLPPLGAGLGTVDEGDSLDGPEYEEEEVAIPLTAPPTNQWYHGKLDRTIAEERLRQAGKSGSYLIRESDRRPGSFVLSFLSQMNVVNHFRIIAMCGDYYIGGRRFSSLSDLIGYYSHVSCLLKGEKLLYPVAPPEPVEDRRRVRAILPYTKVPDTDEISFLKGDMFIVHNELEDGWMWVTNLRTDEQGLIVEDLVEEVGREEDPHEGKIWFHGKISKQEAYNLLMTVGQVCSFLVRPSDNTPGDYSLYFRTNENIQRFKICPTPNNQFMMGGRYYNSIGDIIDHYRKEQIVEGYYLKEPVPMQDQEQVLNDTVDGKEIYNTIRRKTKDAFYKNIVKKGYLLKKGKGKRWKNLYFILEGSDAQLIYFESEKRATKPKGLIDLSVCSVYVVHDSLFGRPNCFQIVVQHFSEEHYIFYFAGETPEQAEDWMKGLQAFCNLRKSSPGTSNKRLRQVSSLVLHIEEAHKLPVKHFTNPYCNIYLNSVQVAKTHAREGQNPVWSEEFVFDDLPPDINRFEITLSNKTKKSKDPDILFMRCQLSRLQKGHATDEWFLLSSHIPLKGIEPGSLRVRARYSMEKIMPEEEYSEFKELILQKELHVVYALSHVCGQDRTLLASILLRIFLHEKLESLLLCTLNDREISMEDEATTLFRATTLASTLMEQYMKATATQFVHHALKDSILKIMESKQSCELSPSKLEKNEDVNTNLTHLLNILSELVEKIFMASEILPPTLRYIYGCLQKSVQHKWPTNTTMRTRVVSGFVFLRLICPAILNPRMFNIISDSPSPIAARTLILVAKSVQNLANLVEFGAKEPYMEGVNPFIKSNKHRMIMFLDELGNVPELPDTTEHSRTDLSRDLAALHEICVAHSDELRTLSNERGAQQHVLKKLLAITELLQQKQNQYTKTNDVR
# UniProt P08962, whole entry: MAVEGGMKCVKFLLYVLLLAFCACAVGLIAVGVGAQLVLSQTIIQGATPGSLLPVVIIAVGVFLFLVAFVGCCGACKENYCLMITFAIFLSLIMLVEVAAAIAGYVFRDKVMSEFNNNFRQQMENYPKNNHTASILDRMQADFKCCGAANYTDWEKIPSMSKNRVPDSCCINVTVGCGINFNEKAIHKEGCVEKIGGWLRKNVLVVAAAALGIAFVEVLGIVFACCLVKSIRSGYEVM
# UniProt Q8NHQ9: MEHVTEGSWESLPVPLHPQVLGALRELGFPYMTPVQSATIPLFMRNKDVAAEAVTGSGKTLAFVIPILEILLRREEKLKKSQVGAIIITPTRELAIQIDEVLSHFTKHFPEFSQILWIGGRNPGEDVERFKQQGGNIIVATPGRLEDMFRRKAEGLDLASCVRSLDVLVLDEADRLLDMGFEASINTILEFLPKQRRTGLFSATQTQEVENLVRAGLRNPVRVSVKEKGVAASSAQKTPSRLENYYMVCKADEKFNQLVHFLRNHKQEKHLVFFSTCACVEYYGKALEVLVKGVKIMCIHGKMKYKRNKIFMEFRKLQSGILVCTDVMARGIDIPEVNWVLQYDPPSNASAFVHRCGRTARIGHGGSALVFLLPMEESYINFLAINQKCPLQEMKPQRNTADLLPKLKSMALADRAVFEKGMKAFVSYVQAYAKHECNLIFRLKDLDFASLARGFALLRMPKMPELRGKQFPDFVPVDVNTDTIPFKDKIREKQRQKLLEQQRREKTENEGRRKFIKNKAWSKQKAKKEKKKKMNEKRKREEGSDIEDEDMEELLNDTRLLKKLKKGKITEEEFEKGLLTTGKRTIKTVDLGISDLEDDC
# UniProt Q9NP50: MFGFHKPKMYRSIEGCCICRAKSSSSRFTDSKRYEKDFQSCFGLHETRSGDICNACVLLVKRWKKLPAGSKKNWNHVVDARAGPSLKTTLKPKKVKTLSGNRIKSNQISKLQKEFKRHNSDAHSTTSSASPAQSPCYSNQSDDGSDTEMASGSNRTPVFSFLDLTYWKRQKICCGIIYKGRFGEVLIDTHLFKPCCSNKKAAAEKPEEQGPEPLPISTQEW
# UniProt P61916: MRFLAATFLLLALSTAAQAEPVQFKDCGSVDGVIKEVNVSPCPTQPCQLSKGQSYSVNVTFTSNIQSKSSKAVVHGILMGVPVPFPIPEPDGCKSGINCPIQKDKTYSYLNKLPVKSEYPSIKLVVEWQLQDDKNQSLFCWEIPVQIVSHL
# ± gives the standard deviation of the averaged measurements. The entries are a selection whose mix differs from that of the whole data set.
# Compound: Nc1ncnc2c1ncn2[C@@H]1O[C@H](COP(=O)(O)OP(=O)(O)NP(=O)(O)O)[C@@H](O)[C@H]1O [adenylyl imidodiphosphate]
# Assay: NP40-soluble protein abundance relative to vehicle (solubility fold change) (ratio); higher = more soluble protein in presence of AMP-PNP
# Outline: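 Jurkat crude lysate (Dounce-homogenised) was treated with eight concentrations from 0.1 to 10 mM for 10 min at room temperature, then 3 min at 37 °C. It was solubilised with 0.8% NP40 and benzonase (60 min, 4 °C) and ultracentrifuged, and the supernatant was TMT-labelled for LC-MS/MS. Intensities were vsn-normalised, and the value is the fold change against the NP40-processed vehicle per replicate, from three independent experiments.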
Target,NP40-soluble protein abundance (concentration: 1mM),NP40-soluble protein abundance (concentration: 2mM),NP40-soluble protein abundance (concentration: 4mM),NP40-soluble protein abundance (concentration: 6mM),NP40-soluble protein abundance (concentration: 8mM),NP40-soluble protein abundance (concentration: 10mM)
E9PI90 and related entries (UniProt Q9H061),0.969 ± 0.054,0.881 ± 0.071,0.958 ± 0.035,0.962 ± 0.02,0.982 ± 0.019,0.924 ± 0.029
F8W8Z9 and related entries (UniProt Q8N4H5),0.914 ± 0.056,0.861 ± 0.02,0.86 ± 0.055,0.92 ± 0.026,0.914 ± 0.078,0.871 ± 0.13
E7EVH9 and related entries (UniProt Q08623),0.978 ± 0.01,0.953 ± 0.011,0.983 ± 0.024,1.02 ± 0.019,0.979 ± 0.013,0.977 ± 0.034
E5RI98 and related entries (UniProt P06748),0.959 ± 0.13,1.11 ± 0.15,0.987 ± 0.13,1.08 ± 0.11,1.07 ± 0.088,1.12 ± 0.1
F8VRH0 and related entries (UniProt Q15366),1.04 ± 0.013,1.08 ± 0.074,1.05 ± 0.039,1.07 ± 0.037,1.05 ± 0.062,1.08 ± 0.059
E7EUC4 and related entries (UniProt Q9NRH2),1.02 ± 0.059,1.01 ± 0.035,1.01 ± 0.044,0.974 ± 0.059,0.992 ± 0.066,0.979 ± 0.062
E9PG19 and related entries (UniProt O94868),1.01 ± 0.013,1.03 ± 0.042,1.01 ± 0.046,0.978 ± 0.015,0.948 ± 0.04,0.983 ± 0.038
E9PE19 and related entries (UniProt Q12830),1.04 ± 0.053,1.11 ± 0.054,1.08 ± 0.022,1.09 ± 0.048,1.05 ± 0.035,1.12 ± 0.041
F8W8G5 and related entries (UniProt P10242),1.05 ± 0.069,1.03 ± 0.11,1.02 ± 0.074,0.969 ± 0.02,0.994 ± 0.074,0.999 ± 0.062
F5GX11 and related entries (UniProt P25786),0.957 ± 0.045,0.959 ± 0.052,0.951 ± 0.071,1.02 ± 0.045,1.01 ± 0.067,1.04 ± 0.12
E7EQL8 and related entries (UniProt Q96RT7),1.01 ± 0.026,1.02 ± 0.012,1.01 ± 0.022,1.01 ± 0.018,0.9878 ± 0.0061,1.01 ± 0.029
E9PFK9 and related entries (UniProt Q9UJ41),1.01 ± 0.017,1.08 ± 0.069,1.04 ± 0.035,1.06 ± 0.059,1.05 ± 0.077,1.07 ± 0.069
F8WC89 (UniProt A6NKF1),0.817 ± 0.096,0.83 ± 0.074,0.838 ± 0.11,0.87 ± 0.11,0.909 ± 0.096,0.965 ± 0.11
F8W950 and related entries (UniProt Q13155),0.987 ± 0.098,0.978 ± 0.098,0.976 ± 0.13,0.943 ± 0.15,0.924 ± 0.14,0.931 ± 0.16
E9PIK4 and related entries (UniProt O14683),0.961 ± 0.025,0.975 ± 0.013,0.953 ± 0.044,0.9157 ± 0.0029,0.913 ± 0.043,0.903 ± 0.053
F8WAN1 and related entries (UniProt Q69YQ0),1.08 ± 0.043,1.1 ± 0.044,1.09 ± 0.067,1.08 ± 0.034,1.05 ± 0.032,1.08 ± 0.049
E7EW05 and related entries (UniProt Q9NVU7),0.965 ± 0.048,1.06 ± 0.14,1.03 ± 0.054,1.08 ± 0.066,1.08 ± 0.052,1.11 ± 0.056
F5H1D6 and related entries (UniProt Q07864),1.01 ± 0.013,0.98 ± 0.02,1.02 ± 0.024,0.9648 ± 0.0087,0.9483 ± 0.0083,0.952 ± 0.014
E9PRF4 and related entries (UniProt Q15047),0.953 ± 0.017,0.981 ± 0.057,0.95 ± 0.013,0.954 ± 0.015,0.927 ± 0.011,0.942 ± 0.017
F8WA39 and related entries (UniProt Q13613),1.07 ± 0.067,1 ± 0.04,1.06 ± 0.055,0.9575 ± 0.0051,1.01 ± 0.03,0.976 ± 0.023
F6S7C4 and related entries (UniProt Q8NEM7),1.003 ± 0.0042,1.015 ± 0.007,0.995 ± 0.0081,1.015 ± 0.0086,1.031 ± 0.0024,1.03 ± 0.023
F5GZ90 and related entries (UniProt Q9NZJ0),0.97 ± 0.019,0.958 ± 0.014,0.9829 ± 0.0072,0.953 ± 0.023,0.9414 ± 0.0028,0.937 ± 0.015
E9PGC0 and related entries (UniProt P20936),1.027 ± 0.01,1.01 ± 0.023,1.034 ± 0.01,1 ± 0.028,1.06 ± 0.048,1.03 ± 0.026
F8VV56 and related entries (UniProt P08962),0.969 ± 0.045,0.988 ± 0.093,0.946 ± 0.069,0.972 ± 0.036,0.959 ± 0.025,0.944 ± 0.065
F5GXX6 and related entries (UniProt Q9NQ89),0.976 ± 0.025,1 ± 0.041,0.982 ± 0.0099,0.976 ± 0.012,0.9379 ± 0.0013,0.937 ± 0.029
F6TB26 and related entries (UniProt Q9Y2W6),0.995 ± 0.032,1.02 ± 0.036,0.999 ± 0.042,0.974 ± 0.039,0.963 ± 0.018,0.981 ± 0.019
F5H5U2 and related entries (UniProt Q8NHQ9),1.02 ± 0.02,1.01 ± 0.063,1.06 ± 0.034,1.08 ± 0.024,1.11 ± 0.018,1.11 ± 0.042
F5GZ82 and related entries (UniProt Q9NP50),0.965 ± 0.054,0.972 ± 0.014,0.963 ± 0.032,0.949 ± 0.029,0.949 ± 0.019,0.989 ± 0.041
E7EMS2 and related entries (UniProt P61916),0.99 ± 0.017,1.06 ± 0.073,0.937 ± 0.043,0.992 ± 0.011,0.929 ± 0.03,0.979 ± 0.061
F5H070 and related entries (UniProt Q9Y4C1),1.02 ± 0.027,1.01 ± 0.012,1.03 ± 0.017,1.01 ± 0.033,0.991 ± 0.02,0.978 ± 0.013

# Full records from above. Order of values: NP40-soluble protein abundance (concentration: 1mM) | NP40-soluble protein abundance (concentration: 2mM) | NP40-soluble protein abundance (concentration: 4mM) | NP40-soluble protein abundance (concentration: 6mM) | NP40-soluble protein abundance (concentration: 8mM) | NP40-soluble protein abundance (concentration: 10mM)
# F5H070 and related entries (UniProt Q9Y4C1) reads 1.02 ± 0.027 | 1.01 ± 0.012 | 1.03 ± 0.017 | 1.01 ± 0.033 | 0.991 ± 0.02 | 0.978 ± 0.013
# F8VRH0 and related entries (UniProt Q15366) reads 1.04 ± 0.013 | 1.08 ± 0.074 | 1.05 ± 0.039 | 1.07 ± 0.037 | 1.05 ± 0.062 | 1.08 ± 0.059
